In patent US6566489:
These are yes or no findings as the source states them, for the method shown. In cells and extracts the contact can be indirect. Some results given as binding are weak or reduced against the parent protein; the word gives no strength. For some of these results: Sequences can lack the tags named with a protein.

By UniProt entry, the sequences of proteins in these tests, tags left out.
UniProt P49024: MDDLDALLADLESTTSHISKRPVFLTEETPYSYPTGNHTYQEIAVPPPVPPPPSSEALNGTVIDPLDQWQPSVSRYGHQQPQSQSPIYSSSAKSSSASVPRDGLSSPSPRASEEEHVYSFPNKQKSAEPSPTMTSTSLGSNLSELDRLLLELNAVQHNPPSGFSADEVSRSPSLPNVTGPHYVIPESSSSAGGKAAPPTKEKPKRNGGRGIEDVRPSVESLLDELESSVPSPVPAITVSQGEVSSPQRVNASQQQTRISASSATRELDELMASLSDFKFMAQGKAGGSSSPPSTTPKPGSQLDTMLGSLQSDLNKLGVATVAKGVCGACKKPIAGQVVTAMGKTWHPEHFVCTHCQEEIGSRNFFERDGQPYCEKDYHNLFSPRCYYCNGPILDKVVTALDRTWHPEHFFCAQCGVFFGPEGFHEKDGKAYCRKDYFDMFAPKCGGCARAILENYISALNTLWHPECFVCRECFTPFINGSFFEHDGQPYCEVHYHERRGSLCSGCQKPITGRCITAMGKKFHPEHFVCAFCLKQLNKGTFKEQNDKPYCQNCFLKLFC

Tests used:
[1] = target: T1, syndecan-4, endogenous protein of chicken embryo fibroblasts (chicken) (UniProt P49416); experiment: co-immunoprecipitation from chick embryo fibroblast lysates with anti-syndecan-4 (CS4E), western blot with anti-S4BP
T1 sequence (looked up): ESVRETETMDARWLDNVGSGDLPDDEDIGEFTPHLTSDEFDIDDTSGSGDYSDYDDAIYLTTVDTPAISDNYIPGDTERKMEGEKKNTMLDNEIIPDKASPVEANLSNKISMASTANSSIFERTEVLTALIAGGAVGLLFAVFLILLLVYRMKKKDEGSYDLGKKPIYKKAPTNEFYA

[2] = target: paxillin, endogenous protein of chicken embryo fibroblasts (chicken) (UniProt P49024); experiment: co-immunoprecipitation from normal non-serum starved CEFs
[3] = target: paxillin, endogenous protein of chicken embryo fibroblasts (chicken) (UniProt P49024); experiment: co-immunoprecipitation from serum starved CEFs after TPA treatment
[4] = target: T1, syndecan-4, endogenous protein of chicken embryo fibroblasts (chicken); experiment: co-immunoprecipitation from serum starved CEFs in the first five minutes after TPA treatment
[5] = target: GST-S4BP fusion protein (bacterially expressed, immobilized on glutathione agarose beads) (chicken) [GST: P08515]; experiment: pull-down of soluble pMal-syndecan on GST-S4BP beads, western blot with CS4E
[6] = target: GST-S4BP fusion protein (bacterially expressed, immobilized on glutathione agarose beads) (chicken) [GST: P08515]; experiment: pull-down on immobilized GST-S4BP (deletion mutant series)
[7] = target: GST-S4BP fusion protein (bacterially expressed, immobilized on glutathione agarose beads) (chicken) [GST: P08515]; experiment: pull-down of soluble pMal-syndecan on GST-S4BP beads (chimera series)

Measured: binding

B1: S4BP, endogenous protein of chicken embryo tissues and chicken embryo fibroblasts (CEFs) (protein)
chain: GVMAAVGALPAGAGSLPPLPTLGVPGVPELKPLTRYEAMRLGPGWSHSCHAMLYAPNPGMLFGRIPLRYAVLMQMRFDGLLGFPGGFVDRRYWSLEDGLNRVLGLGLGCVRLTEADYLCSHLTDGPHRVVAHLYARQLTLEELHTIEISAVHSRDHGLEVMGMVRVPLYTQKDRMGGLPNFLANSFVGTAKFQLLFALKILNMVPEEKLAEAVAATQKPKKPAIDHAAVAAAKQANELAAAARAGNEYADSGENQAAAHAAAELAEQQAAGLESQAVLEHLAAVPGAEAVVAELHAQPGADAVLEQPVAEAME
modifications: can be myristoylated (glycine following the second or third methionine)
binds: [1] | [2] | [3] | [4]

B2: pMal/syndecan-4 fusion protein, full length syndecan-4 core protein (S-4) (protein, avian, UniProt P49416 20-197, looked up, not shown: large carriers)
chain: ESVRETETMDARWLDNVGSGDLPDDEDIGEFTPHLTSDEFDIDDTSGSGDYSDYDDAIYLTTVDTPAISDNYIPGDTERKMEGEKKNTMLDNEIIPDKASPVEANLSNKISMASTANSSIFERTEVLTALIAGGAVGLLFAVFLILLLVYRMKKKDEGSYDLGKKPIYKKAPTNEFYA
binds: [5] | [6] | [7]
